According to PubChem BioAssay AID504847 (National Center for Advancing Translational Sciences (NCATS), 2011):
Out of some 400,000 compounds screened, about 3,700 (0.93%) were called active. Inconclusive results, whose numbers are uncertain, are shown with a selection of clear calls. Calls follow the shape of the dose curve; as a rule, active = well fitted inhibition curve with a large enough effect; inconclusive = small, poorly fitted or top-dose-only effect, or another doubt; inactive = no such curve, though single readings can be large or run the other way. A potency beside an inconclusive call is a rough fit, not a confirmed value.

The chains behind the UniProt entries cited, without tags or fusion partners. Where a name states a change or a piece, a line headed by the entry shows the natural chain unless it says otherwise.
UniProt P11473: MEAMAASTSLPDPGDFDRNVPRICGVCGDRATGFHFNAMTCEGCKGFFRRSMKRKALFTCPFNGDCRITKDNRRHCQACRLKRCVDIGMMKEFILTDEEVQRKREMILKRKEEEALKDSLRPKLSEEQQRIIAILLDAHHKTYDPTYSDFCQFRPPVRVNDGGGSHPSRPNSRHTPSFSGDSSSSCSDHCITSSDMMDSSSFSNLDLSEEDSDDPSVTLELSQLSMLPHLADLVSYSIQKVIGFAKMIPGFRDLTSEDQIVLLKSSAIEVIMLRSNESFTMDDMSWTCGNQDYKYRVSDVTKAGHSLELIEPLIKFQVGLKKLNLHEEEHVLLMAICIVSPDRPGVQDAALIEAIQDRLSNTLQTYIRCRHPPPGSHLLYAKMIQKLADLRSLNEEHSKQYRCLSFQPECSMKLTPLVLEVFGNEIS

Target: Vitamin D3 receptor (Homo sapiens) (UniProt P11473)
Assay: Inhibitors of the vitamin D receptor (VDR): qHTS
Conditions: VDR-SRC2-3 peptide fluorescence polarization, 2 h; max response, negative = inhibition: active compounds read low
Outline: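 Measured by FP: displacement of SRC2-3 coactivator peptide from VDR by library compounds, following a two-hour ambient incubation.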
% is scaled to controls: 0 for no effect and ±100 for the full control effect; potency is read from the fitted curve at half-maximal effect.

Row | SMILES | Potency | max response, negative = inhibition
1 | Cn1cc(Cl)c(C(=O)NC(=S)Nc2sc3c(c2C#N)CCCCC3)n1 | inconclusive: 89.1 µM [inhibitor, single point] | 
2 | NC(=O)c1cc(Cc2ccccc2)sc1NC(=O)c1ccco1 | inconclusive: 79.4 µM [inhibitor, partial curve, poor fit] | 
3 | O=C(Nc1nc2cc3c(cc2s1)OCCO3)c1ccncc1 | inconclusive: 89.1 µM [inhibitor, single point] | 
4 | Fc1ccc(-c2c[nH]c(=S)n2Cc2ccccc2)cc1 | inconclusive: 44.7 µM [inhibitor, partial curve, poor fit] | 
5 | Cc1ccc(NC2=C(NCCO)C(=O)c3ccccc3C2=O)cc1 | inconclusive: 44.7 µM [inhibitor, partial curve, poor fit] | 
6 | COc1ccc(-c2nc(/C=C3\C(C)=Nc4ccccc43)c(O)o2)cc1 |  | inactive: 1.47%
7 | Cc1nc2c3ccccc3nc(NNC(=O)CCC(=O)O)n2n1 |  | inactive: -4.82%
8 | COc1ccc(NS(=O)(=O)c2ccc(N3CCCC3)c(NC(=S)Nc3ccc(SC(F)F)cc3)c2)cc1 | inconclusive: 39.8 µM [inhibitor, full curve, poor fit] | 
9 | Cc1cccc(NC(=S)NNC(=O)COc2ccc(Cl)cc2Cl)c1 |  | inactive: -21.4%
10 | CCN1CCN(c2ncc3c(n2)CC(c2ccc(OC)c(OC)c2)CC3=O)CC1 (stereo not drawn) |  | inactive: 0.496%
11 | Cc1c(Br)c([N+](=O)[O-])nn1CCCC(=O)Nc1sc2c(c1C#N)CCC2 | inconclusive: 56.2 µM [inhibitor, partial curve, poor fit] | 
12 | COc1oc(=O)c2cc(N)ccc2c1Cl | inconclusive: 44.7 µM [inhibitor, partial curve] | 
13 | Cc1ccc(C2(C)NC(=O)N(CC(=O)c3ccc(Cl)s3)C2=O)cc1 (stereo not drawn) | inconclusive: 100 µM [inhibitor, single point] | 
14 | COc1ccc(N2CSC3=C(C#N)C(c4cccc(OC)c4OC)CC(=O)N3C2)cc1 (stereo not drawn) | active: 20 µM | 
15 | COc1cc2c(cc1OC)CN(c1ccc(F)cc1[N+](=O)[O-])CC2 | inconclusive: 14.1 µM [inhibitor, full curve, poor fit] | 
16 | Oc1ccc(N=Nc2n[nH]c(-c3ccc(Cl)cc3)n2)cc1 |  | inactive: 3.21%
17 | O=C1NC(=Nc2ccccc2Cl)S/C1=C\c1cc([N+](=O)[O-])ccc1O | inconclusive: 79.4 µM [inhibitor, partial curve, poor fit] | 
18 | CC1CCC(C(C)C)C(=O)/C1=C/c1ccc(N)cc1 (stereo not drawn) | inconclusive: 28.2 µM [inhibitor, partial curve, poor fit] | 

Record cards (already shown).
O=C1NC(=Nc2ccccc2Cl)S/C1=C\c1cc([N+](=O)[O-])ccc1O in the list: Potency: inconclusive: 79.4 µM [inhibitor, partial curve, poor fit]
Fc1ccc(-c2c[nH]c(=S)n2Cc2ccccc2)cc1 in the list: Potency: inconclusive: 44.7 µM [inhibitor, partial curve, poor fit]
